Source: ChEMBL document CHEMBL3988442, “University of Dundee, Small-Polar-MMV Screening Library” (2021).

Protein sequences, listed by entry. Tags and fused reporters are not part of them.
UniProt P9WFT3, whole entry: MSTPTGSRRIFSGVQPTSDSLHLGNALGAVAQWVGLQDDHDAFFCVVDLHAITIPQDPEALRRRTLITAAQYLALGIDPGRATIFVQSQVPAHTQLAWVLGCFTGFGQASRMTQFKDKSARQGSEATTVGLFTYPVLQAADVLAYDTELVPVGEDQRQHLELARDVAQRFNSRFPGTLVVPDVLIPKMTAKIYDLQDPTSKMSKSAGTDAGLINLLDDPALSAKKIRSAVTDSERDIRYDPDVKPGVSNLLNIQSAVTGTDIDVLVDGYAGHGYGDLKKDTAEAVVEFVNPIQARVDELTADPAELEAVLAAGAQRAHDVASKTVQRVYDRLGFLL

The filed quantity is “Percent Effect” (%). The controls that fix the scale are not given in the record; negative values are as filed. This is an unselected part of the compounds tested.

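Enzyme assay of tryptophanyl-tRNA synthetase; the read-out is not stated. Target: Tryptophan-tRNA ligase, Mycobacterium tuberculosis (UniProt P9WFT3). Tested at 10 µM. Direction is not recorded; retested compounds ran higher, which suggests that high means inhibition. Size under these conditions: about 65,000 compounds, about 64 of them at 50% or above in at least one test.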

CCc1nc(CN(C(C)=O)C2CCN(CCc3ccccc3)C2)no1 (stereo unspecified) gave -0.8023%. For Cc1nc(C)n(C2CCCN(C(=O)c3ccnc(N(C)C)c3)C2)n1 (stereo unspecified) the result was -1.064%. NC(=O)CN1CCCN(C(=O)c2ccn(-c3ccc(F)cc3)n2)CC1 gave 9.695%. Cc1nn(C)c(Cl)c1C1CCCN1CC(=O)NC1CCCC1 (stereo unspecified) read -2.694%. Result for Cc1cc(C(F)(F)F)nc(C2(C)CCCN2CC(N)=O)n1 (stereo unspecified) was 5.339%. For CCCc1nc(C(=O)NC(COC)c2ccnn2C)cs1 (stereo unspecified) the result was 1.836%. For CN(C)CCN(Cc1ccc(C#N)cc1)C(=O)c1ccn(C)c(=O)c1 the result was 0.8163%. Result for O=C(c1ncc[nH]1)N1CCC(n2cc(-c3ccccn3)nn2)CC1 was 4.231%.

With CCN1CCN(CCCNC(=O)c2cc3ccc(C)cc3nc2C)CC1 the screen gave 2.741%. With O=C(NCCN1CCOCC1)NCc1cccnc1-n1cccn1 the screen gave 0.1487%. COc1cccc2ccn(CC(=O)NC(C)C)c12 read -2.031%. For CC(Nc1cccc2c1OCCO2)C(=O)Nc1cccc(C#N)c1 (stereo unspecified) the result was -1.511%. CN(Cc1ccc(C#N)cc1)C(=O)c1ccn(C)c(=O)c1 gave 1.361%. Result for Cc1nc(COc2ccc(OCC(N)=O)cc2)oc1C was -4.464%. For CN(Cc1nnc(C2CC2)o1)C(c1ccc(F)cc1)c1cccnc1 (stereo unspecified) the result was -5.759%. Result for COCc1cc(CN(C)C(=O)c2c[nH]nc2-c2cccc(F)c2)n[nH]1 was -0.7322%.

With CC(C)NC(=O)c1cc2c(c3ccccc3n2C)n1C(=O)N(C)C the screen gave 1.299%. Cc1ccc(C(=O)NS(=O)(=O)c2c(Cl)cccc2Cl)c(=O)[nH]1 read -8.678%. C[C@@H]1C(=O)NC[C@H]2CN(CCc3ccccc3)C[C@H]21 read 1.603%. Result for CS(=O)(=O)CCC(=O)Nc1cc(Cl)c(Cl)cn1 was 11.15%. With CCc1nc(C2CCCN2Cc2nc3ccccc3o2)no1 (stereo unspecified) the screen gave -0.2346%. For CN1CCOC(C(=O)N(C)c2ccc3c(c2)CCO3)C1 (stereo unspecified) the result was -1.699%. Cc1cc(C)n(-c2cncc(N3CCN(C(=O)C(C)(C)C)CC3)n2)n1 gave 0%. With Cc1nc(C)c(C)c(N2CCC3(CCOC3)C2)n1 (stereo unspecified) the screen gave 2.886%.

COc1ccccc1OCc1cc(C(=O)N2C[C@H](O)[C@@H](N(C)C)C2)n[nH]1 read -7.962%. For COc1ccc(N2CCN(C(=O)CCn3nnnc3C)CC2(C)C)cc1 the result was 8.622%. With CN(c1ccc(-c2nc(C3CC3)no2)cn1)C1CCOCC1 the screen gave -3.802%. With c1cc(OCc2ccc3c(c2)OCCO3)ccc1CNC1CC1 the screen gave -26.38%. Clc1snnc1CN1CCCC(Cn2cncn2)C1 (stereo unspecified) gave 1.18%. For c1cnc2c(c1)nc1n2[C@@H](CNC2CCOCC2)COC1 the result was 6.413%. With CCn1nc(C)cc1C(=O)NCc1nc(C)no1 the screen gave -1.296%. CCc1nc(-c2ccc(NC(=O)N3CCC4(CC3)OCCO4)cc2)no1 read 2.795%.

For CN(C)S(=O)(=O)N1CC(c2nc(-c3ccsc3)no2)C1 the result was 0.2366%. Result for O=C(c1cscn1)N1C[C@@H]2[C@@H](C1)OCC(=O)N2CC1CCCC1 was 1.74%. For CC(CNC(=O)c1ccccc1Oc1cccnc1)N(C)C (stereo unspecified) the result was -2.709%. NC(=O)c1cc(CC2CCCN(c3cnccn3)C2)ncn1 (stereo unspecified) read -6.223%.

Some entries from above, unchanged:

| Compound | Percent Effect |
|---|---|
| `CCc1nc(C2CCCN2Cc2nc3ccccc3o2)no1` (stereo unspecified) | -0.2346% |
| `O=C(NCCN1CCOCC1)NCc1cccnc1-n1cccn1` | 0.1487% |
| `Cc1nc(C)n(C2CCCN(C(=O)c3ccnc(N(C)C)c3)C2)n1` (stereo unspecified) | -1.064% |
| `C[C@@H]1C(=O)NC[C@H]2CN(CCc3ccccc3)C[C@H]21` | 1.603% |